Source: PubChem BioAssay AID1224828 (NIAID, 2016)
Assay: 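Knock-downs that increase or decrease LPS-induced p65 nuclear translocation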 (primary screen). Cell system: mouse RAW264.7 G9 macrophage reporter cells (GFP-p65, Tnf promoter-mCherry). Reagents: siRNA pool against mouse genes, 100 nM. Duration: 2 days siRNA transfection, then 40 min LPS before fixation. Challenge: LPS (Salmonella minnesota R595) at 10 ng/ml. Measurement: 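Imaged p65 nuclear translocation ratio, normalised to the plate median, converted to robust z-scores and averaged across two replicates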. Scale: p65 translocation robust z-score: higher = more nuclear NF-kappaB p65 after LPS than the plate median; nuclear/cytoplasmic p65 ratio: higher = more nuclear NF-kappaB p65. Active means: 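Called active when z exceeds 3.3 or falls under -1.56 (median of Tlr4 controls), giving activity score of at least 50; no calls for control wells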. Calls: active = hit (p65 shift raised or lowered); inactive = no clear change.
The whole screen tested about 17,000 reagents; below is an unselected part. 762 of them (4.5%) count as active. 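Active calls include both raised and lowered p65 entry, mostly lowered; wells with fewer than 50 cells lack a z-score.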 Raw values vary from plate to plate and are shown uncorrected.

| gene | p65 translocation robust z-score | nuclear/cytoplasmic p65 ratio, rep 1 | nuclear/cytoplasmic p65 ratio, rep 2 | low cell count flag | call |
| --- | --- | --- | --- | --- | --- |
| 1700020N01Rik | 0.8 | 1.52 | 1.5 | enough cells to score | inactive |
| Cldn7 | -0.31 | 1.46 | 1.82 | enough cells to score | inactive |
| Or4f58 | -1.52 | 1.39 | 1.22 | enough cells to score | inactive |
| Ce9 | 1.13 | 1.79 | 1.8 | enough cells to score | inactive |
| Mterf1b | -0.53 | 1.57 | 1.5 | enough cells to score | inactive |
| Plekhh3 | -0.66 | 1.52 | 1.51 | enough cells to score | inactive |
| Frmd4a | -0.3 | 1.36 | 1.46 | enough cells to score | inactive |
| A330041J22Rik | -0.91 | 1.36 | 1.4 | enough cells to score | inactive |
| Scn10a | 0.73 | 1.63 | 1.77 | enough cells to score | inactive |
| 1700084P21Rik | -0.89 | 1.28 | 1.3 | enough cells to score | inactive |
| Nsun6 | – | 1.23 | 1.41 | fewer than 50 cells per well; well left out of scoring | inactive |
| Adam25 | -1.02 | 1.38 | 1.6 | enough cells to score | inactive |
| Nup43 | – | 1.34 | 1.44 | fewer than 50 cells per well; well left out of scoring | inactive |
| Rdh16 | 0.52 | 1.53 | 1.24 | enough cells to score | inactive |
| Nkd2 | 1.36 | 1.89 | 1.76 | enough cells to score | inactive |
| Bmal2 | -0.03 | 1.66 | 1.57 | enough cells to score | inactive |
| Herc6 | -0.58 | 1.57 | 1.49 | enough cells to score | inactive |
| Nqo2 | -0.56 | 1.24 | 1.46 | enough cells to score | inactive |
| Syt16 | 1.56 | 1.63 | 1.36 | enough cells to score | inactive |
| Tbc1d8b | -0.11 | 1.41 | 1.53 | enough cells to score | inactive |
| Ehmt1 | -0.7 | 1.38 | 1.27 | enough cells to score | inactive |
| Banf2 | 0.74 | 1.33 | 1.39 | enough cells to score | inactive |
| Plin5 | -0.8 | 1.26 | 1.07 | enough cells to score | inactive |
| Syt6 | -0.58 | 1.39 | 1.13 | enough cells to score | inactive |
| Noct | 0.37 | 1.69 | 1.8 | enough cells to score | inactive |
| Xkrx | -0.21 | 1.26 | 1.5 | enough cells to score | inactive |
| Col4a3 | 0.72 | 1.53 | 1.5 | enough cells to score | inactive |
| Psmd10 | 0.09 | 1.16 | 1.23 | enough cells to score | inactive |
| Tsc2 | 1.19 | 1.65 | 1.7 | enough cells to score | inactive |
| Prm2 | 0.24 | 1.41 | 1.24 | enough cells to score | inactive |
| Hoxd1 | 0.95 | 1.8 | 1.69 | enough cells to score | inactive |
| Tst | -0.76 | 1.46 | 1.35 | enough cells to score | inactive |
| Gucy1a1 | 0.3 | 1.47 | 1.41 | enough cells to score | inactive |
| Neurod1 | -2.54 | 1.11 | 1.03 | enough cells to score | active |
| Exosc10 | 0.21 | 1.72 | 1.41 | enough cells to score | inactive |
| Tgfb2 | 0.77 | 1.68 | 1.58 | enough cells to score | inactive |
| Adi1 | -0.57 | 1.53 | 1.58 | enough cells to score | inactive |
| Or5t15 | -0.67 | 1.57 | 1.47 | enough cells to score | inactive |
| Fmo3 | 0.15 | 1.44 | 1.41 | enough cells to score | inactive |
| Rnf146 | -1.28 | 1.23 | 1.29 | enough cells to score | inactive |
| Ticrr | -0.89 | 1.44 | 1.7 | enough cells to score | inactive |
| Tnfrsf14 | – | 1.43 | 1.5 | fewer than 50 cells per well; well left out of scoring | inactive |
| 4631423B10Rik | 1.36 | 1.4 | 1.46 | enough cells to score | inactive |
| Dmrtc1a | 1.07 | 1.41 | 1.38 | enough cells to score | inactive |
| Tacc3 | -0.35 | 1.49 | 1.48 | enough cells to score | inactive |
| Ntn3 | -1.07 | 1.31 | 1.27 | enough cells to score | inactive |

Part of the list above, reformatted.
{"gene":"Or4f58","p65 translocation robust z-score":-1.52,"nuclear/cytoplasmic p65 ratio, rep 1":1.39,"nuclear/cytoplasmic p65 ratio, rep 2":1.22,"low cell count flag":"enough cells to score","call":"inactive"}
{"gene":"Ce9","p65 translocation robust z-score":1.13,"nuclear/cytoplasmic p65 ratio, rep 1":1.79,"nuclear/cytoplasmic p65 ratio, rep 2":1.8,"low cell count flag":"enough cells to score","call":"inactive"}
{"gene":"Mterf1b","p65 translocation robust z-score":-0.53,"nuclear/cytoplasmic p65 ratio, rep 1":1.57,"nuclear/cytoplasmic p65 ratio, rep 2":1.5,"low cell count flag":"enough cells to score","call":"inactive"}
{"gene":"Plekhh3","p65 translocation robust z-score":-0.66,"nuclear/cytoplasmic p65 ratio, rep 1":1.52,"nuclear/cytoplasmic p65 ratio, rep 2":1.51,"low cell count flag":"enough cells to score","call":"inactive"}
{"gene":"Frmd4a","p65 translocation robust z-score":-0.3,"nuclear/cytoplasmic p65 ratio, rep 1":1.36,"nuclear/cytoplasmic p65 ratio, rep 2":1.46,"low cell count flag":"enough cells to score","call":"inactive"}
{"gene":"A330041J22Rik","p65 translocation robust z-score":-0.91,"nuclear/cytoplasmic p65 ratio, rep 1":1.36,"nuclear/cytoplasmic p65 ratio, rep 2":1.4,"low cell count flag":"enough cells to score","call":"inactive"}
{"gene":"Scn10a","p65 translocation robust z-score":0.73,"nuclear/cytoplasmic p65 ratio, rep 1":1.63,"nuclear/cytoplasmic p65 ratio, rep 2":1.77,"low cell count flag":"enough cells to score","call":"inactive"}
{"gene":"1700084P21Rik","p65 translocation robust z-score":-0.89,"nuclear/cytoplasmic p65 ratio, rep 1":1.28,"nuclear/cytoplasmic p65 ratio, rep 2":1.3,"low cell count flag":"enough cells to score","call":"inactive"}
{"gene":"Nsun6","nuclear/cytoplasmic p65 ratio, rep 1":1.23,"nuclear/cytoplasmic p65 ratio, rep 2":1.41,"low cell count flag":"fewer than 50 cells per well; well left out of scoring","call":"inactive"}
{"gene":"Adam25","p65 translocation robust z-score":-1.02,"nuclear/cytoplasmic p65 ratio, rep 1":1.38,"nuclear/cytoplasmic p65 ratio, rep 2":1.6,"low cell count flag":"enough cells to score","call":"inactive"}
{"gene":"Nup43","nuclear/cytoplasmic p65 ratio, rep 1":1.34,"nuclear/cytoplasmic p65 ratio, rep 2":1.44,"low cell count flag":"fewer than 50 cells per well; well left out of scoring","call":"inactive"}
{"gene":"Rdh16","p65 translocation robust z-score":0.52,"nuclear/cytoplasmic p65 ratio, rep 1":1.53,"nuclear/cytoplasmic p65 ratio, rep 2":1.24,"low cell count flag":"enough cells to score","call":"inactive"}

The listing continues:
| gene | p65 translocation robust z-score | nuclear/cytoplasmic p65 ratio, rep 1 | nuclear/cytoplasmic p65 ratio, rep 2 | low cell count flag | call |
| --- | --- | --- | --- | --- | --- |
| Zfp207 | -0.14 | 1.39 | 1.23 | enough cells to score | inactive |
| Becn1 | -1.45 | 1.29 | 1.32 | enough cells to score | inactive |
| Calb1 | 0.13 | 1.6 | 1.66 | enough cells to score | inactive |
| Bend7 | -1.1 | 1.24 | 1.23 | enough cells to score | inactive |
| Tsx | – | 1.63 | 1.36 | fewer than 50 cells per well; well left out of scoring | inactive |
| Scel | 0.02 | 1.62 | 1.42 | enough cells to score | inactive |
| Dera | -0.37 | 1.35 | 1.56 | enough cells to score | inactive |
| Cetn2 | -0.18 | 1.56 | 1.76 | enough cells to score | inactive |
| Mnmip1 | 1.65 | 1.57 | 1.67 | enough cells to score | inactive |
| S1pr2 | -1.69 | 1.4 | 1.34 | enough cells to score | active |
| Or2h2 | 0.64 | 1.55 | 1.73 | enough cells to score | inactive |
| Pglyrp4 | -0.26 | 1.38 | 1.23 | enough cells to score | inactive |
| H2ac18 | 0.69 | 1.67 | 1.53 | enough cells to score | inactive |
| Or13l2 | 0.33 | 1.5 | 1.69 | enough cells to score | inactive |
| Vmn1r231 | -2.2 | 1.09 | 0.99 | enough cells to score | active |
| Vps9d1 | -0.73 | 1.57 | 1.44 | enough cells to score | inactive |
| Zbtb33 | -0.53 | 1.5 | 1.37 | enough cells to score | inactive |
| Polr1has | 0.3 | 1.42 | 1.46 | enough cells to score | inactive |
| Myo10 | 2.31 | 1.75 | 1.63 | enough cells to score | inactive |
| Epha1 | 1.02 | 1.73 | 1.61 | enough cells to score | inactive |
| Nmi | 0.54 | 1.51 | 1.49 | enough cells to score | inactive |
| Or10g7 | – | 1.33 | 1.26 | fewer than 50 cells per well; well left out of scoring | inactive |
| Rnpc3 | – | 1.08 | 1.18 | fewer than 50 cells per well; well left out of scoring | inactive |
| Igf1 | 0.26 | 1.43 | 1.44 | enough cells to score | inactive |
| Taldo1 | -0.87 | 1.35 | 1.45 | enough cells to score | inactive |
| Rhot2 | – | 1.41 | 1.12 | fewer than 50 cells per well; well left out of scoring | inactive |
| D1Pas1 | 0.56 | 1.55 | 1.73 | enough cells to score | inactive |
| Prmt7 | -0.35 | 1.54 | 1.77 | enough cells to score | inactive |
| Mtag2 | -0.3 | 1.87 | 1.33 | enough cells to score | inactive |
